Test results: PMC10425460
No constants are given. Whether binding was seen depends on the method and setting. Binding seen in cells or lysates may run through a third protein. For some assays here: A result given as binding can be weak or reduced; the word gives no strength. Sequences can lack the tags named with a protein.

What was measured:
[1] = molecular target: T1, Exo84b:GFP (Exo84bp::Exo84b:GFP) (Arabidopsis thaliana) (UniProt Q9LTB0); assay: co-IP; GFP-Trap_A on extracts of 10-day-old stable transgenic Arabidopsis seedlings in Nonidet P-40 buffer with 1 mM PMSF, 1 h at 4 °C; endogenous VAP27 detected by blot with a VAP27 antibody that detects VAP27-1 and -3
T1 sequence: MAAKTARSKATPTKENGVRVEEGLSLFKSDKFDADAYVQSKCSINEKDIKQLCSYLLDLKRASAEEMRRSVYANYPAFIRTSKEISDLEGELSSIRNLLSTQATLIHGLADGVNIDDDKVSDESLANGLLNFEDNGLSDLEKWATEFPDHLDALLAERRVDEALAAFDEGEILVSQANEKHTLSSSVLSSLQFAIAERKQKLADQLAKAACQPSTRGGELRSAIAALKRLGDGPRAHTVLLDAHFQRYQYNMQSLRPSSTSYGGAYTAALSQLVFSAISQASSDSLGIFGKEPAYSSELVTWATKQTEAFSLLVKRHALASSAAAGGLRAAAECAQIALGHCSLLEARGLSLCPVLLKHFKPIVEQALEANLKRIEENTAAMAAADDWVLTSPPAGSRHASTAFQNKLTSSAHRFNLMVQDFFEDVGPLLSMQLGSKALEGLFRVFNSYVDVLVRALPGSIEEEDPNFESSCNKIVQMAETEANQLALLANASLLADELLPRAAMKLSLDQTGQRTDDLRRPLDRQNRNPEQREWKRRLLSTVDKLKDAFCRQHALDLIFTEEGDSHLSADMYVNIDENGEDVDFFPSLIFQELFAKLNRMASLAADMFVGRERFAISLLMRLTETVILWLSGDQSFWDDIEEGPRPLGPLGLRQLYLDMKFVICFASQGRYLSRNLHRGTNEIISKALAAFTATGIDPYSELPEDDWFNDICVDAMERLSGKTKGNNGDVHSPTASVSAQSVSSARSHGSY

[2] = molecular target: T2, Exo84c:GFP (Exo84cp::Exo84c:GFP in exo84c mutant background) (Arabidopsis thaliana) (UniProt Q9SY60); assay: as above
T2 sequence: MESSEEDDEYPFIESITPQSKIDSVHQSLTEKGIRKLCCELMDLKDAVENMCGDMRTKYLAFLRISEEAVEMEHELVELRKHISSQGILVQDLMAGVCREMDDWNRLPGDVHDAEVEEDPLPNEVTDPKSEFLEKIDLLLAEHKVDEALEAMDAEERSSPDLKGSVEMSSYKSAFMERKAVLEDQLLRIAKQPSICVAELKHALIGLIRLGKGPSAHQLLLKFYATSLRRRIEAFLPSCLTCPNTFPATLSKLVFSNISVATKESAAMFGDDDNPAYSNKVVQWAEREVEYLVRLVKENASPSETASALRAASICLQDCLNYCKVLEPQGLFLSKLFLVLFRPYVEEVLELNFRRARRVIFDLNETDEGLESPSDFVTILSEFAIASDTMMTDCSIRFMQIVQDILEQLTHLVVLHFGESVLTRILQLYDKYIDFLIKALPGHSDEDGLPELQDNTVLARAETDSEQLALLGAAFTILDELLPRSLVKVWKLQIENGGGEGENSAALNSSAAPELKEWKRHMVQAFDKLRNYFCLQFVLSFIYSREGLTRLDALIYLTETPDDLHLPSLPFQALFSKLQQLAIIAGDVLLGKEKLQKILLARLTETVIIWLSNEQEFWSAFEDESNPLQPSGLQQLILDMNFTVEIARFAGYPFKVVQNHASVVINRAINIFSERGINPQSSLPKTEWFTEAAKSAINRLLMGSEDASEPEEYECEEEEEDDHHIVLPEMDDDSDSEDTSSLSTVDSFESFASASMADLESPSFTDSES

Substance: endogenous VAP27
- binding [1]: no binding
- binding [2]: binds
